Measured values published in doi:10.1101/609503.

B1: EnvC (endogenous, membrane extract) (protein, UniProt P37690 35-419)
chain: DERDQLKSIQADIAAKERAVRQKQQQRASLLAQLKKQEEAISEATRKLRETQNTLNQLNKQIDEMNASIAKLEQQKAAQERSLAAQLDAAFRQGEHTGIQLILSGEESQRGQRLQAYFGYLNQARQETIAQLKQTREEVAMQRAELEEKQSEQQTLLYEQRAQQAKLTQALNERKKTLAGLESSIQQGQQQLSELRANESRLRNSIARAEAAAKARAEREAREAQAVRDRQKEATRKGTTYKPTESEKSLMSRTGGLGAPRGQAFWPVRGPTLHRYGEQLQGELRWKGMVIGASEGTEVKAIADGRVILADWLQGYGLVVVVEHGKGDMSLYGYNQSALVSVGSQVRAGQPIALVGSSGGQGRPSLYFEIRRQGQAVNPQPWLGR
B2: PBP3 (endogenous, membrane extract) (enzyme, UniProt P0AD68 1-577)
chain: MKAAAKTQKPKRQEEHANFISWRFALLCGCILLALAFLLGRVAWLQVISPDMLVKEGDMRSLRVQQVSTSRGMITDRSGRPLAVSVPVKAIWADPKEVHDAGGISVGDRWKALANALNIPLDQLSARINANPKGRFIYLARQVNPDMADYIKKLKLPGIHLREESRRYYPSGEVTAHLIGFTNVDSQGIEGVEKSFDKWLTGQPGERIVRKDRYGRVIEDISSTDSQAAHNLALSIDERLQALVYRELNNAVAFNKAESGSAVLVDVNTGEVLAMANSPSYNPNNLSGTPKEAMRNRTITDVFEPGSTVKPMVVMTALQRGVVRENSVLNTIPYRINGHEIKDVARYSELTLTGVLQKSSNVGVSKLALAMPSSALVDTYSRFGLGKATNLGLVGERSGLYPQKQRWSDIERATFSFGYGLMVTPLQLARVYATIGSYGIYRPLSITKVDPPVPGERVFPESIVRTVVHMMESVALPGGGGVKAAIKGYRIAIKTGTAKKVGPDGRYINKYIAYTAGVAPASQPRFALVVVINDPQAGKYYGGAVSAPVFGAIMGGVLRTMNIEPDALTTGDKNEFV
B3: FtsK (endogenous, membrane extract) (protein, UniProt P46889 1-1329)
chain: MSQEYIEDKEVTLTKLSSGRRLLEALLILIVLFAVWLMAALLSFNPSDPSWSQTAWHEPIHNLGGMPGAWLADTLFFIFGVMAYTIPVIIVGGCWFAWRHQSSDEYIDYFAVSLRIIGVLALILTSCGLAAINADDIWYFASGGVIGSLLSTTLQPLLHSSGGTIALLCVWAAGLTLFTGWSWVTIAEKLGGWILNILTFASNRTRRDDTWVDEDEYEDDEEYEDENHGKQHESRRARILRGALARRKRLAEKFINPMGRQTDAALFSGKRMDDDEEITYTARGVAADPDDVLFSGNRATQPEYDEYDPLLNGAPITEPVAVAAAATTATQSWAAPVEPVTQTPPVASVDVPPAQPTVAWQPVPGPQTGEPVIAPAPEGYPQQSQYAQPAVQYNEPLQQPVQPQQPYYAPAAEQPAQQPYYAPAPEQPVAGNAWQAEEQQSTFAPQSTYQTEQTYQQPAAQEPLYQQPQPVEQQPVVEPEPVVEETKPARPPLYYFEEVEEKRAREREQLAAWYQPIPEPVKEPEPIKSSLKAPSVAAVPPVEAAAAVSPLASGVKKATLATGAAATVAAPVFSLANSGGPRPQVKEGIGPQLPRPKRIRVPTRRELASYGIKLPSQRAAEEKAREAQRNQYDSGDQYNDDEIDAMQQDELARQFAQTQQQRYGEQYQHDVPVNAEDADAAAEAELARQFAQTQQQRYSGEQPAGANPFSLDDFEFSPMKALLDDGPHEPLFTPIVEPVQQPQQPVAPQQQYQQPQQPVPPQPQYQQPQQPVAPQPQYQQPQQPVAPQQQYQQPQQPVAPQQQYQQPQQPVAPQPQDTLLHPLLMRNGDSRPLHKPTTPLPSLDLLTPPPSEVEPVDTFALEQMARLVEARLADFRIKADVVNYSPGPVITRFELNLAPGVKAARISNLSRDLARSLSTVAVRVVEVIPGKPYVGLELPNKKRQTVYLREVLDNAKFRDNPSPLTVVLGKDIAGEPVVADLAKMPHLLVAGTTGSGKSVGVNAMILSMLYKAQPEDVRFIMIDPKMLELSVYEGIPHLLTEVVTDMKDAANALRWCVNEMERRYKLMSALGVRNLAGYNEKIAEADRMMRPIPDPYWKPGDSMDAQHPVLKKEPYIVVLVDEFADLMMTVGKKVEELIARLAQKARAAGIHLVLATQRPSVDVITGLIKANIPTRIAFTVSSKIDSRTILDQAGAESLLGMGDMLYSGPNSTLPVRVHGAFVRDQEVHAVVQDWKARGRPQYVDGITSDSESEGGAGGFDGAEELDPLFDQAVQFVTEKRKASISGVQRQFRIGYNRAARIIEQMEAQGIVSEQGHNGNREVLAPPPFD
B4: AmiA (endogenous, membrane extract) (enzyme, UniProt P36548 35-289)
chain: KDELLKTSNGHSKPKAKKSGGKRVVVLDPGHGGIDTGAIGRNGSKEKHVVLAIAKNVRSILRNHGIDARLTRSGDTFIPLYDRVEIAHKHGADLFMSIHADGFTNPKAAGASVFALSNRGASSAMAKYLSERENRADEVAGKKATDKDHLLQQVLFDLVQTDTIKNSLTLGSHILKKIKPVHKLHSRNTEQAAFVVLKSPSVPSVLVETSFITNPEEERLLGTAAFRQKIATAIAEGVISYFHWFDNQKAHSKKR
B5: PBP1B (endogenous, membrane extract) (enzyme, UniProt P02919 1-844)
chain: MAGNDREPIGRKGKPTRPVKQKVSRRRYEDDDDYDDYDDYEDEEPMPRKGKGKGKGRKPRGKRGWLWLLLKLAIVFAVLIAIYGVYLDQKIRSRIDGKVWQLPAAVYGRMVNLEPDMTISKNEMVKLLEATQYRQVSKMTRPGEFTVQANSIEMIRRPFDFPDSKEGQVRARLTFDGDHLATIVNMENNRQFGFFRLDPRLITMISSPNGEQRLFVPRSGFPDLLVDTLLATEDRHFYEHDGISLYSIGRAVLANLTAGRTVQGASTLTQQLVKNLFLSSERSYWRKANEAYMALIMDARYSKDRILELYMNEVYLGQSGDNEIRGFPLASLYYFGRPVEELSLDQQALLVGMVKGASIYNPWRNPKLALERRNLVLRLLQQQQIIDQELYDMLSARPLGVQPRGGVISPQPAFMQLVRQELQAKLGDKVKDLSGVKIFTTFDSVAQDAAEKAAVEGIPALKKQRKLSDLETAIVVVDRFSGEVRAMVGGSEPQFAGYNRAMQARRSIGSLAKPATYLTALSQPKIYRLNTWIADAPIALRQPNGQVWSPQNDDRRYSESGRVMLVDALTRSMNVPTVNLGMALGLPAVTETWIKLGVPKDQLHPVPAMLLGALNLTPIEVAQAFQTIASGGNRAPLSALRSVIAEDGKVLYQSFPQAERAVPAQAAYLTLWTMQQVVQRGTGRQLGAKYPNLHLAGKTGTTNNNVDTWFAGIDGSTVTITWVGRDNNQPTKLYGASGAMSIYQRYLANQTPTPLNLVPPEDIADMGVDYDGNFVCSGGMRILPVWTSDPQSLCQQSEMQQQPSGNPFDQSSQPQQQPQQQPAQQEQKDSDGVAGWIKDMFGSN
B6: PBP1C (endogenous, membrane extract) (enzyme, UniProt P76577 1-770)
chain: MPRLLTKRGCWITLAAAPFLLFLAAWGADKLWPLPLHEVNPARVVVAQDGTPLWRFADADGIWRYPVTIEDVSPRYLEALINYEDRWFWKHPGVNPFSVARAAWQDLTSGRVISGGSTLTMQVARLLDPHPKTFGGKIRQLWRALQLEWHLSKREILTLYLNRAPFGGTLQGIGAASWAYLGKSPANLSYSEAAMLAVLPQAPSRLRPDRWPERAEAARNKVLERMAVQGVWSREQVKESREEPIWLAPRQMPQLAPLFSRMMLGKSKSDKITTTLDAGLQRRLEELAQNWKGRLPPRSSLAMIVVDHTDMRVRGWVGSVDLNDDSRFGHVDMVNSIRSPGSVLKPFVYGLALDEGLIHPASLLQDVPRRTGDYRPGNFDSGFHGPISMSEALVRSLNLPAVQVLEAYGPKRFAAKLRNVGLPLYLPNGAAPNLSLILGGAGAKLEDMAAAYTAFARHGKAGKLRLQPDDPLLERPLMSSGAAWIIRRIMADEAQPLPDSALPRVAPLAWKTGTSYGYRDAWAIGVNARYVIGIWTGRPDGTPVVGQFGFASAVPLLNQVNNILLSRSANLPEDPRPNSVTRGVICWPGGQSLPEGDGNCRRRLATWLLDGSQPPTLLLPEQEGINGIRFPIWLDENGKRVAADCPQARQEMINVWPLPLEPWLPASERRAVRLPPASTSCPPYGHDAQLPLQLTGVRDGAIIKRLPGAAEATLPLQSSGGAGERWWFLNGEPLTERGRNVTLHLTDKGDYQLLVMDDVGQIATVKFVMQ
B7: MltC (endogenous, membrane extract) (enzyme, UniProt P0C066 17-359)
chain: CSTTKKGDTYNEAWVKDTNGFDILMGQFAHNIENIWGFKEVVIAGPKDYVKYTDQYQTRSHINFDDGTITIETIAGTEPAAHLRRAIIKTLLMGDDPSSVDLYSDVDDITISKEPFLYGQVVDNTGQPIRWEGRASNFADYLLKNRLKSRSNGLRIIYSVTINMVPNHLDKRAHKYLGMVRQASRKYGVDESLILAIMQTESSFNPYAVSRSDALGLMQVVQHTAGKDVFRSQGKSGTPSRSFLFDPASNIDTGTAYLAMLNNVYLGGIDNPTSRRYAVITAYNGGAGSVLRVFSNDKIQAANIINTMTPGDVYQTLTTRHPSAESRRYLYKVNTAQKSYRRR
B8: AmiC (endogenous, membrane extract) (enzyme, UniProt P63883 32-417)
chain: AVSQVVAVRVWPASSYTRVTVESNRQLKYKQFALSNPERVVVDIEDVNLNSVLKGMAAQIRADDPFIKSARVGQFDPQTVRMVFELKQNVKPQLFALAPVAGFKERLVMDLYPANAQDMQDPLLALLEDYNKGDLEKQVPPAQSGPQPGKAGRDRPIVIMLDPGHGGEDSGAVGKYKTREKDVVLQIARRLRSLIEKEGNMKVYMTRNEDIFIPLQVRVAKAQKQRADLFVSIHADAFTSRQPSGSSVFALSTKGATSTAAKYLAQTQNASDLIGGVSKSGDRYVDHTMFDMVQSLTIADSLKFGKAVLNKLGKINKLHKNQVEQAGFAVLKAPDIPSILVETAFISNVEEERKLKTATFQQEVAESILAGIKAYFADGATLARRG
B9: PBP7 (endogenous, membrane extract) (enzyme, UniProt P0AFI5 26-310)
chain: KTAAATTASQPEIASGSAMIVDLNTNKVIYSNHPDLVRPIASISKLMTAMVVLDARLPLDEKLKVDISQTPEMKGVYSRVRLNSEISRKDMLLLALMSSENRAAASLAHHYPGGYKAFIKAMNAKAKSLGMNNTRFVEPTGLSVHNVSTARDLTKLLIASKQYPLIGQLSTTREDMATFSNPTYTLPFRNTNHLVYRDNWNIQLTKTGFTNAAGHCLVMRTVINNKPVALVVMDAFGKYTHFADASRLRTWIETGKVMPVPAAALSYKKQKAAQMAAAGQTAQND

Biological target: T1, NlpI (soluble version, residues 19-294) (E. coli) (UniProt P0AFB1)
T1 sequence (chain, NT647 RED-NHS dye on amines where used as the labelled partner (fl-NlpI)): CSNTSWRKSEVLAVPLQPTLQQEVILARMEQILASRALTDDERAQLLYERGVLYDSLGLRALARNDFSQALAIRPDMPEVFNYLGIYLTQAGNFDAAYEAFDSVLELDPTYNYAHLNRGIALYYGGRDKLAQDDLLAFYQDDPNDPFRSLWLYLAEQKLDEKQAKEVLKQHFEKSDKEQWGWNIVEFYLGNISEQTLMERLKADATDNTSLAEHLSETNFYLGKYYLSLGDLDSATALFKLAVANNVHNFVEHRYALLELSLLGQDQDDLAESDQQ
Experiment: affinity purification with mass spectrometry

binding, binds:
B1
B2
B3
B4

Biological target: T1, NlpI (soluble version, residues 19-294) (E. coli)
Experiment: affinity purification with mass spectrometry
Remark: another data set of the same source

binding, binds:
B5
B6
B1
B2
B3
B7
B8
B9

No constants are given. Whether binding was seen depends on the method and setting. In cells and extracts the contact can be indirect. A yes stands for co-enrichment or nearness to the bait. Other partners may have been found.
